Measured values published in PMC10725499.
Results are given in words; binding and its absence hold for the method and conditions named. In cells and extracts the contact can be indirect. Some entries that bind do so weakly or less than the wild type.

Sequences of proteins named here, by UniProt entry; tags and fusion partners are left off.
UniProt Q9NYV4: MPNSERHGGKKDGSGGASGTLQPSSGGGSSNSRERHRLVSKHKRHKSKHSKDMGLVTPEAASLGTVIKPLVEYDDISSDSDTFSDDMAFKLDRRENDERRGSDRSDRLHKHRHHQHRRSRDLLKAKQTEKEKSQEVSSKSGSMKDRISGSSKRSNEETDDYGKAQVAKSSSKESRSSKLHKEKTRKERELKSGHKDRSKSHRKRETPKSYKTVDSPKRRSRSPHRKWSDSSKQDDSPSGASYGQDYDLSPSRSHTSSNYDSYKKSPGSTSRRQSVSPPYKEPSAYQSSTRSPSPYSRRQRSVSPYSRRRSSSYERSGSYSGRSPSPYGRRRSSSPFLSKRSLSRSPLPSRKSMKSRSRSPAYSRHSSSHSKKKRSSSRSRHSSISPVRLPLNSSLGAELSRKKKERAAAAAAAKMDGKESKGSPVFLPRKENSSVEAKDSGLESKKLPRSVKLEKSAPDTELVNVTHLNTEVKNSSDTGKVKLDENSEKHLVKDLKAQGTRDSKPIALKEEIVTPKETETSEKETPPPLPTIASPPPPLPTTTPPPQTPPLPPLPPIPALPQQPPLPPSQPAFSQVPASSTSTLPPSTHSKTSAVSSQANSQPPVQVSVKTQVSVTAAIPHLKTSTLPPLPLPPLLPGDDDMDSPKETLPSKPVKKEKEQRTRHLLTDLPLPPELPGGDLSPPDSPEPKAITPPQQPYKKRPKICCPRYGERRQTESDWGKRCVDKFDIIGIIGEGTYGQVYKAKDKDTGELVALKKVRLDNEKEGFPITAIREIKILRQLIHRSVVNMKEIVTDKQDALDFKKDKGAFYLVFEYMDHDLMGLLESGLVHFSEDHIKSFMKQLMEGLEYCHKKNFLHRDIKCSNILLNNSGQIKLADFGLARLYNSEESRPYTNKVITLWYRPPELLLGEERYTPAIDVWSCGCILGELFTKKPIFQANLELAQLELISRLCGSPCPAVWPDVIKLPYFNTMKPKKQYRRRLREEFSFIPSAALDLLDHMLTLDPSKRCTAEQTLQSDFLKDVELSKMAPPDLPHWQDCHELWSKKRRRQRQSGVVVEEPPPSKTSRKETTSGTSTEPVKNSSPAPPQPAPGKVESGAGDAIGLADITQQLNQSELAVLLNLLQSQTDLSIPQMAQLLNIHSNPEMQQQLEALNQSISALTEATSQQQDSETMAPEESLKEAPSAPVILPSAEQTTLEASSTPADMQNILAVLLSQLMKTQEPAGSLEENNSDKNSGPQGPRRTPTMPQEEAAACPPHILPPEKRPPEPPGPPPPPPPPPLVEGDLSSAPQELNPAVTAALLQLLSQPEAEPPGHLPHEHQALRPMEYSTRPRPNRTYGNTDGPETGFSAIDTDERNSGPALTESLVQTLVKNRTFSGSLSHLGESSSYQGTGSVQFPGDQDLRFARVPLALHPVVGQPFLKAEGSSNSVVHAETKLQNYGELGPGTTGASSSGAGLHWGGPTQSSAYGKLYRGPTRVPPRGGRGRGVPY
UniProt Q16531: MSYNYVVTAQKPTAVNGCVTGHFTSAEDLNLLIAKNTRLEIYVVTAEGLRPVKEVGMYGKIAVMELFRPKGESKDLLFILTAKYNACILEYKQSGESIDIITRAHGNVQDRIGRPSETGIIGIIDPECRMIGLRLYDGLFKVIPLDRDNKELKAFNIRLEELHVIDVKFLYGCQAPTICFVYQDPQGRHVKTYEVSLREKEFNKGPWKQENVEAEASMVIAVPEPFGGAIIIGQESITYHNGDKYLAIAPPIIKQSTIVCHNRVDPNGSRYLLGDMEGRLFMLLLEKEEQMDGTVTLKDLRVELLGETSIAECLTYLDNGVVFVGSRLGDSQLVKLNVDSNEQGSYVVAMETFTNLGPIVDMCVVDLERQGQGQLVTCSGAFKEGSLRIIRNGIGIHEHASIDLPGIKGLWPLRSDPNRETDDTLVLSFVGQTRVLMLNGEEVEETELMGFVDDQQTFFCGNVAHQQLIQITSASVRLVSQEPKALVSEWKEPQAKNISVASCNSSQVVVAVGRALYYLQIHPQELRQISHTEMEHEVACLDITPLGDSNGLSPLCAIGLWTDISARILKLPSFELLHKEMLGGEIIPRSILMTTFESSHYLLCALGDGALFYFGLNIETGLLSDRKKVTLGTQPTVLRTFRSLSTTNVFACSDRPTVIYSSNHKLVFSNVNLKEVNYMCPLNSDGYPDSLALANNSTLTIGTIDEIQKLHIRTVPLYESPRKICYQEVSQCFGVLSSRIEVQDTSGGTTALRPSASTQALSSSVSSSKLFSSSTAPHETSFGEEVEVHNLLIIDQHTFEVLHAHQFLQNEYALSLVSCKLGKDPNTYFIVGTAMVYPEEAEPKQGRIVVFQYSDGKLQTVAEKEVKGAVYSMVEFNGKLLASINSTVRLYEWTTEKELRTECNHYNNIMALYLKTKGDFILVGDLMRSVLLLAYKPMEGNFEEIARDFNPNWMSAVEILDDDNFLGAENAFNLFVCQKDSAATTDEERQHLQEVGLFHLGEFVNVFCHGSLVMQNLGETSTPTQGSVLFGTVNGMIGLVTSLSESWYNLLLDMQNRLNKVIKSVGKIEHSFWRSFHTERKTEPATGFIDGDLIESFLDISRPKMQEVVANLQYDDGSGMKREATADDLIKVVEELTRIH

Molecular target: 6Myc-tagged CDK12 (human) (UniProt Q9NYV4)
Assay: co-IP; HEK293 cells co-transfected with Myc-CDK12, HA-cyclin K and Flag-DDB1; untreated or treated for indicated times with SR-4835 (1 µM) or THZ531 (1 µM); lysed in BLB buffer; Myc-CDK12 immunoprecipitated (antibody 2 h, protein A-Sepharose CL-4B 1 h), washed three times in lysis buffer …

In the case of “Flag-tagged DDB1 (from UniProt Q16531 1-1140)”, the binding is reported as “binds”.
